Source: publication PMC2797610
Results are given in words; binding and its absence hold for the method and conditions named. For part of these data: Binding seen in cells or lysates may run through a third protein. Some entries that bind do so weakly or less than the wild type. Tags and fused reporters may be left off the sequences shown. Each block holds one molecule with its values, some of them ahead of it.

Sequences of proteins named here, by UniProt entry; tags and fusion partners are left off.
UniProt P22216: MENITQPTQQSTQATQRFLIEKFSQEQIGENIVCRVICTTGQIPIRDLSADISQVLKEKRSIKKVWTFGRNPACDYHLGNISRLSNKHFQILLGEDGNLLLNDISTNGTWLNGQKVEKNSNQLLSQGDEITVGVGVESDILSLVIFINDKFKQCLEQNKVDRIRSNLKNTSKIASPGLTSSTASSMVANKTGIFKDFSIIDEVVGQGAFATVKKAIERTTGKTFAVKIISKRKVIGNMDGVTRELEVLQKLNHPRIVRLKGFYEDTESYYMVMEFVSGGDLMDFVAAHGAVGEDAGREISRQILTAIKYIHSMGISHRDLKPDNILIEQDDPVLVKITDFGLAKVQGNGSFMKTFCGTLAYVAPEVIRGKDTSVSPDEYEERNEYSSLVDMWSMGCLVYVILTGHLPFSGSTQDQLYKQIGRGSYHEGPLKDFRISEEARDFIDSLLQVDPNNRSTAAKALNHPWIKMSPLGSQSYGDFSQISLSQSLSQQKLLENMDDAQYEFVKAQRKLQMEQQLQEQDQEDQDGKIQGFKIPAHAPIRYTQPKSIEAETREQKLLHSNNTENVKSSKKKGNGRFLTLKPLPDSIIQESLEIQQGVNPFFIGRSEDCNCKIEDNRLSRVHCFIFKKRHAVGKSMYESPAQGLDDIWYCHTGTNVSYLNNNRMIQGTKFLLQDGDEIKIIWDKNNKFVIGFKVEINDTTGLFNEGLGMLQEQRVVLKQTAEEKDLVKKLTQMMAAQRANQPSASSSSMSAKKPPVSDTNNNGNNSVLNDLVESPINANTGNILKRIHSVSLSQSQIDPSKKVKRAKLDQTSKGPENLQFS

Tests used:
[1] = target: T1, GST-PBD_(357–705), recombinant fusion of GST and the polo box domain of Cdc5 (S. cerevisiae) (UniProt P32562); experiment: pull-down; Standard GST pull down with the polo box of Cdc5, tested for Rad53; no figure is given for this result; only the target purified
T1 sequence: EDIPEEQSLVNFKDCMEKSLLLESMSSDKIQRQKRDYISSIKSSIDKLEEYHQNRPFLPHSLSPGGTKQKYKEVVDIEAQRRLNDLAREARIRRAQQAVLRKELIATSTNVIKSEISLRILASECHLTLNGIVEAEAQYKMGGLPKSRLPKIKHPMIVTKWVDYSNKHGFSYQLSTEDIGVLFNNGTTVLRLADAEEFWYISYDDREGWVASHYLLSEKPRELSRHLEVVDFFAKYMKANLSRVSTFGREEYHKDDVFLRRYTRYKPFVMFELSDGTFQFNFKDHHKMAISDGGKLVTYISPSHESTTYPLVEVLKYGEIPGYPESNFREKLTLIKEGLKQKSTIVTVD

[2] = target: T2, lexA fusion with the polo box domain of Cdc5 (pEG202-PBD_(340–705)) (S. cerevisiae) (UniProt P32562); experiment: two-hybrid; B42/lexA system in strain EGY48 with the lacZ reporter pSH18-34; X-Gal plates with raffinose (prey repressed) or galactose (prey expressed)
T2 sequence: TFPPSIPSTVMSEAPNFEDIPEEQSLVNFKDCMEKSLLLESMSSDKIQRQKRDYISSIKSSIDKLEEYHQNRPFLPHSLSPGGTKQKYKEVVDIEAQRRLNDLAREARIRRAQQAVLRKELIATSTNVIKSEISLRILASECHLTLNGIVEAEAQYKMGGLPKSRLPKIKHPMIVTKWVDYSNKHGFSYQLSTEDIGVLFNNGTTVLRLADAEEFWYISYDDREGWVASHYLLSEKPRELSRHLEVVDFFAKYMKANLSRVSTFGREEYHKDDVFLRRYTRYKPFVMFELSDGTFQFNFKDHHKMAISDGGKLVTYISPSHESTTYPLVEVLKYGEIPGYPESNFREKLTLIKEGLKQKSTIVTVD

[3] = target: T1, GST-PBD_(357–705), recombinant fusion of GST and the polo box domain of Cdc5 (S. cerevisiae); experiment: pull-down; GST-PBD(357-705) on glutathione-Sepharose beads incubated with whole cell extract of nocodazole-blocked strain Y202 (SAE2-3HA); 1 hour at 4°C; washed three times with NP-40 buffer; western blot with 12CA5; only the target purified

binding [1]: no binding
Molecule: Rad53 (from UniProt P22216 1-821)

binding [2]: binds
B1: B42 activating domain fusion of full length Sae2 (pJG4-5-SAE2) (protein, UniProt P46946 1-345)
chain: MVTGEENVYLKSSLSILKELSLDELLNVQYDVTTLIAKRVQALQNRNKCVLEEPNSKLAEILCHEKNAPQQSSQTSAGPGEQDSEDFILTQFDEDIKKESAEVHYRNENKHTVQLPLVTMPPNRHKRKISEFSSPLNGLNNLSDLEDCSDTVIHEKDNDKENKTRKLLGIELENPESTSPNLYKNVKDNFLFDFNTNPLTKRAWILEDFRPNEDIAPVKRGRRKLERFYAQVGKPEDSKHRSLSVVIESQNSDYEFAFDNLRNRSKSPPGFGRLDFPSTQEGNEDKKKSQEIIRRKTKYRFLMASNNKIPPYEREYVFKREQLNQIVDDGCFFWSDKLLQIYARC

binding [3]: binds
B2: Sae2-3HA (protein, UniProt P46946 1-345)
chain: B1 chain
